Assay: Body weight of lean and obese Zucker rats after one week of treatment
Type: in vivo
Details: for Body weight: 12 mg/kg every 12 h for 1 wk

CCCn1c(=O)c2[nH]c(-c3ccc(C=CC(=O)O)cc3)nc2n(CCC)c1=O [BWA1433, 1,3-dipropyl-8-(p-acrylic)phenylxanthine]
Body weight (lean rats): 182 ± 5 g
Body weight (obese rats): 260 ± 11 g
Change in body weight (one week treatment, either lean or obese animals): did not produce significant changes

Source: patent US6060481A, “Method for improving insulin sensitivity using an adenosine receptor antagonist” (priority 1999, dated 2000)
